Our source for the binding values is patent publication US20250027073A1.

Sequences of proteins named here, by UniProt entry; tags and fusion partners are left off. A change or cut given only in a name is not applied to a line headed by its entry. Residues count along the entry.
UniProt P25942, residues 21-277: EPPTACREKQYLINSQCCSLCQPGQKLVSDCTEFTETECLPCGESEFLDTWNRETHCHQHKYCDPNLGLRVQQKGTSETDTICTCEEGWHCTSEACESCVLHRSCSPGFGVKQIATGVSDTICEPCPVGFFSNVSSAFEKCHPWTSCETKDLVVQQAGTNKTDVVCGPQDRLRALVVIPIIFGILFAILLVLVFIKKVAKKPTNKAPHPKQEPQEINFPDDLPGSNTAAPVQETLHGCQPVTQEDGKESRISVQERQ
UniProt P27548: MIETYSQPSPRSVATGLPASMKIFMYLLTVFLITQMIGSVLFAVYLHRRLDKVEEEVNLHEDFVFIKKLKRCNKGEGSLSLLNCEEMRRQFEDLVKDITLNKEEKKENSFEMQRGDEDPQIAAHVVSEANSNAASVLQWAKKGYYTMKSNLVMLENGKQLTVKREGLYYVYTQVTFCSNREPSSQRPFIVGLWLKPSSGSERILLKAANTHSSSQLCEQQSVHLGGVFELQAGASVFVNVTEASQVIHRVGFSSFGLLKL

No constants are given. Whether binding was seen depends on the method and setting. Some binding calls cover weakened binding; strength is not graded here.

In the experiment the target is CD40 (UniProt P25942). The experiment can be described thus: flow cytometry; GFP viruses displaying CD40L on CD40 expressing Raji B cells.

As to “wild type CD40 ligand (CD40L), displayed on the lentiviral surface (from UniProt P27548 1-260)”, the binding result is reported as “binds”.
